# Test results: PubChem BioAssay AID624298 (National Center for Advancing Translational Sciences (NCATS), 2012)
# The inconclusive results got no clear call from the source; some entries with a clear call stand among them for comparison. A potency beside an inconclusive call is a rough fit, not a confirmed value. Calls of active or inactive are those of the source. Calls follow the shape of the dose curve; as a rule, active = well fitted activation curve with a large enough effect; inconclusive = small, poorly fitted or top-dose-only effect; inactive = no such curve, though single readings can be large or run the other way.
# Experiment: Activators of T cell receptors: Hit Validation
# Details: primary human leukocytes, cytokine release by HTRF, 48 h, TCR-stimulated with anti-CD3 beads; series mostly up to 46.1 µM
# In short: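 Readout is IL-2 secretion by HTRF, measured after 48 hr in which primary human leukocytes received compound together with a-CD3 beads as the only TCR stimulus.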
# Potency is read from the fitted curve at half-maximal effect.
row,SMILES,Potency
1,O=C1N/C(=C/c2cccs2)C(=O)N1Cc1ccc(Br)cc1,inactive
2,CSc1cnn(-c2ccccc2)c(=O)c1SC,"inconclusive: 1.77 µM [activator, full curve]"
3,CCSc1cnn(-c2ccccc2)c(=O)c1SCC,"inconclusive: 4.99 µM [activator, full curve]"
4,S=c1[nH]c2ccccc2n2c(=S)[nH]nc12,active: 11.2 µM
5,CNC(=S)N1N=C(c2ccccc2)CC1c1ccc(OC)c(OC)c1 (configuration not stated),"inconclusive: 14.1 µM [activator, partial curve]"
6,C=CCn1c(SCC(=O)NCC(c2ccccc2)N(C)C)nnc1C1CCCCC1 (configuration not stated),"inconclusive: 35.3 µM [activator, partial curve, poor fit]"
7,Cn1c(/C(C#N)=C(\O)c2ccc(Br)s2)nc2ccccc21,"inconclusive: 19.9 µM [activator, partial curve]"
8,COc1ccc(-n2c(=O)c(CCC(=O)NCCc3ccccc3F)nc3ccccc32)cc1,inactive
9,CC(=O)NS(=O)(=O)c1ccc(NC(=S)NC(=O)COc2ccccc2C)cc1,active: 14.1 µM
10,COc1ccc(C(=O)Nc2cccc(NC(C)=O)c2)cc1OC,inactive
11,CCOc1ccc(C(=O)N(CN2CCCC2=O)c2cccc(Cl)c2)cc1,inactive
12,CNc1snc(C)c1C(=O)OCC(=O)N(C)c1ccccc1,"inconclusive: 15.8 µM [activator, partial curve]"
13,Cn1c(-c2sc3cc(C(F)(F)F)cnc3c2-c2ccccc2)n[nH]c1=S,"inconclusive: 12.5 µM [activator, partial curve]"
14,COc1ccc(Cl)cc1NC(=O)CN(C)C(=O)c1cn2ccccc2n1,inactive
15,CC(=O)Nc1ccc(C(=O)Nc2nc(-c3cc(C)n(Cc4ccccc4)c3C)cs2)cc1,"inconclusive: 15.8 µM [activator, partial curve, poor fit]"
16,COc1ccccc1CN1CCCC(N2CCN(c3ccc(F)cc3)CC2)C1 (configuration not stated),"inconclusive: 14.1 µM [activator, partial curve]"
17,CC12CCC(C1)C(C)(C)C2NS(=O)(=O)c1ccc(F)cc1 (configuration not stated),"inconclusive: 19.9 µM [activator, single point]"
18,CCN(CC)c1ccc2nc3ccccc3[n+](CC)c2c1,active: 4.99 µM
19,CN(C)c1ccc(C=c2c3ccccc3n3c2c2ccccc2[n+]3C)cc1,active: 0.56 µM
20,O=C(c1cn(-c2ccccc2)nc1-c1cccnc1)N1CCN(S(=O)(=O)c2cccc(F)c2)CC1,"inconclusive: 19.9 µM [activator, partial curve, poor fit]"
21,Cn1c(Cn2c(=O)sc3ccccc32)nnc1SCC(=O)NCc1ccccc1,"inconclusive: 8.88 µM [activator, partial curve]"
22,C=C(C)C(=O)OCC(C)C,inactive
23,COc1cc(/C=C/C(=O)O)cc(OC)c1OC,inactive
24,O=C(/C=C/c1ccc[nH]1)c1ccccc1,"inconclusive: 17.7 µM [activator, partial curve, poor fit]"
25,CCCCCCC[C@@H](C/C=C/CCC(=O)N(C)C/C(=C/Cl)C/C(=C\C(=O)N1CC(OC)=CC1=O)OC)OC,active: 0.996 µM
26,O=C(CCCN1CCC(C(=O)c2ccc(F)cc2)CC1)c1ccc(F)cc1,inactive
27,COc1c(C)cccc1C(=O)NC(=S)Nc1cccc2nsnc12,"inconclusive: 3.97 µM [activator, full curve, poor fit]"

# Of the compounds above, two have bromine:
row,SMILES,Potency
1,O=C1N/C(=C/c2cccs2)C(=O)N1Cc1ccc(Br)cc1,inactive
7,Cn1c(/C(C#N)=C(\O)c2ccc(Br)s2)nc2ccccc21,"inconclusive: 19.9 µM [activator, partial curve]"
